This assay concerns P388 leukemia ip, CD2F1 mice, survival T/C. Description: NCI In Vivo Anticancer Drug Screen. Data for tumor model P388 Leukemia (intraperitoneal) in CD2F1 (CDF1) mice. Particulars: T/C endpoint: median survival time, higher T/C = longer survival.
The mark [1] stands for this setting: dose: 100.0 mg/kg/injection, schedule: Q01DX009 (ip), vehicle: saline.
The mark [2] stands for this setting: dose: 200.0 mg/kg/injection, schedule: Q01DX009 (ip), vehicle: saline.
Setting [3] is: dose: 50.0 mg/kg/injection, schedule: Q01DX005 (ip), vehicle: saline.
The mark [4] stands for this setting: dose: 100.0 mg/kg/injection, schedule: Q01DX005 (ip), vehicle: saline.
Setting [5] is: dose: 240.0 mg/kg/injection, schedule: Q01DX005 (ip), vehicle: saline.
The mark [6] stands for this setting: dose: 25.0 mg/kg/injection, schedule: Q01DX009 (ip), vehicle: saline with Tween-80.
Where [7] appears, read: dose: 12.5 mg/kg/injection, schedule: Q01DX009 (ip), vehicle: saline with Tween-80.

The list is a part of this screen's results and no random one: it is rich in T/C values a quarter to a half above the control, in often repeated tests (any T/C) and in doses without a T/C. Further doses and runs are listed elsewhere. T/C gives the treated animals as a percentage of the vehicle group. Some doses have a count of surviving animals in place of a T/C: the source files T/C as zero there, which appears to mark a toxic dose or a test without result, not a measured value. Some survivor counts are full or nearly so, which does not show that the dose was tolerated: survival well below the control is almost never listed, so the zero probably covers shortened survival too. Counts of survivors are from the toxicity check (mostly the fifth day) where no day follows; animals may have died later. Schedule codes are those of the source, read here as Q, the interval in days (D) or hours (H), X, the number of doses. Some entries were tested several times; the results are listed from low to high. Some structures stand for samples that the source files as different forms (salt, stereo form or complex); doses refer to the form tested. Where survival is the endpoint, the PubChem record calls one and a half times the control and up active, and a quarter to a half above the control has no call in these data; cut-offs in other NCI protocols can differ. Some T/C values carry the count of animals alive at the toxicity check (mostly the fifth day); without a count, all were alive then.

Regarding `OCC1OC(n2cnc3c2NC=NC[C@H]3O)CC1O` (some centres undefined), the survivor count is, setting by setting: (dose: 8.0 mg/kg/injection, schedule: Q01DX009 (ip), vehicle: water) 6 of 6; (dose: 16.0 mg/kg/injection, schedule: Q01DX009 (ip), vehicle: water) 5 of 6; (dose: 32.0 mg/kg/injection, schedule: Q01DX009 (ip), vehicle: water) 4 of 6; (dose: 64.0 mg/kg/injection, schedule: Q01DX009 (ip), vehicle: water) 1 of 6.
In the case of `CONc1ccn(C2OC(CO)C(O)C2O)c(=O)n1` (centres undefined), the T/C by setting is: under setting [1], 127 % of control; under setting [2], 126 and 133 % of control.
Regarding `CS(=O)(=O)CS(=O)(=O)OCCF`, under “dose: 6.25 mg/kg/injection, schedule: Q01DX005 (ip), vehicle: saline”, the T/C is 142 % of control. The survivor count under setting [3] is reported as 0 of 6 and the survivor count under setting [4] is 0 of 6.
Turning to `COC(=O)C(N)Cc1ccc(OCc2ccccc2)cc1` (centres undefined), the survivor count under setting [1] is 3 of 6; the survivor count (dose: 100.0 mg/kg/injection, schedule: Q04DX002 (ip), vehicle: saline with Tween-80) is 0 of 6 and 2 of 6; the survivor count under setting [2] is listed as 0 of 6; the survivor count (dose: 200.0 mg/kg/injection, schedule: Q04DX002 (ip), vehicle: saline with Tween-80) is reported as 0 of 6; the survivor count (dose: 400.0 mg/kg/injection, schedule: Q04DX002 (ip), vehicle: saline with Tween-80) is reported as 0 of 6.
For the compound `Nc1ncc[n+]2c(COCCCl)[nH]nc12`, where the note is “dose: 400.0 mg/kg/injection, schedule: Q01DX001 (ip), vehicle: Klucel (hydroxypropylcellulose) (HPC)”, the survivor count was 5 of 6.
With `CC(C)(C#N)C#N`, the survivor count is listed as 3 of 6 (dose: 100.0 mg/kg/injection, schedule: Q04DX003 (ip), vehicle: saline with Tween-80); 1 of 6 (dose: 200.0 mg/kg/injection, schedule: Q04DX003 (ip), vehicle: saline with Tween-80); 0 of 6 (dose: 400.0 mg/kg/injection, schedule: Q04DX003 (ip), vehicle: saline with Tween-80).
`OCC1OC(n2ncc3ccccc32)C(O)C1O` (centres undefined): the T/C (dose: 64.0 mg/kg/injection, schedule: Q01DX002 (ip), vehicle: saline with Tween-80) was 142 % of control.
With `CCN(CC)CCN(C)C(C)C(=O)Nc1ccccc1Cl` (centres undefined), the survivor count under setting [5] is 0 of 6.
On to `O=C(Nc1ccc(C2=NCCN2)cc1)c1ccc(C(=O)Nc2ccc(C3=NCCN3)cc2)c(F)c1`, for which, for the setting “dose: 50.0 mg/kg/injection, schedule: Q04DX003 (ip), vehicle: saline with Tween-80”, the T/C is 136 % of control.
For `CCOC1=N[C@H]2CCCC[C@H]2N1`, the survivor count by setting is: (dose: 120.0 mg/kg/injection, schedule: Q01DX005 (ip), vehicle: saline) 0 of 6; under setting [5], 0 of 6.
Turning to `COc1ccc2c(c1OC)C[C@@H]1c3c(cc4c(c3-2)OCO4)CCN1C`, the survivor count is, setting by setting: (dose: 100.0 mg/kg/injection, schedule: Q01DX005 (ip), vehicle: Klucel (hydroxypropylcellulose) (HPC)) 0 of 6; (dose: 200.0 mg/kg/injection, schedule: Q01DX005 (ip), vehicle: Klucel (hydroxypropylcellulose) (HPC)) 0 of 6.
On to `CCC1CCC2COCN2C1` (centres undefined), for which the T/C was 125 % of control under setting [3]; 127 [5 of 6 alive] and 134 % of control under setting [4].
In the case of `CCCCCC(CN(C)C)C(/C=C/c1ccccc1Cl)=N\O` (centres undefined), the survivor count under setting [2] is 2 of 6.
Consider `COc1ccc2nc3ccccc3c(SCCCCCCSc3c4ccccc4nc4ccc(OC)cc34)c2c1`, for which the survivor count is reported as 6 of 6 (dose: 120.0 mg/kg/injection, schedule: Q01DX005 (ip), vehicle: Klucel (hydroxypropylcellulose) (HPC)) and 6 of 6 (dose: 240.0 mg/kg/injection, schedule: Q01DX005 (ip), vehicle: Klucel (hydroxypropylcellulose) (HPC)).
On to `C[CH2][Pb]([Br])([CH2]C)[CH2]C`, for which the T/C under setting [6] is 132 % of control. In addition, the survivor count (dose: 50.0 mg/kg/injection, schedule: Q01DX009 (ip), vehicle: saline with Tween-80) is listed as 5 of 6.
As for `CCN(CC)CC.COC(=O)NC#N.[CH-]1CCCCC1.[CH-]1CCCCC1.[CH-]1CCCCC1.[Cl-].[Sn+4]`, the survivor count is recorded as 0 of 6 (dose: 12.5 mg/kg/injection, schedule: Q01DX005 (ip), vehicle: saline with Tween-80); 0 of 6 (dose: 50.0 mg/kg/injection, schedule: Q01DX005 (ip), vehicle: saline with Tween-80); 0 of 6 (dose: 100.0 mg/kg/injection, schedule: Q01DX005 (ip), vehicle: saline with Tween-80); 0 of 6 (dose: 200.0 mg/kg/injection, schedule: Q01DX005 (ip), vehicle: saline with Tween-80).
Turning to `OCC12C=COC1OC2(c1ccccc1)c1ccccc1` (centres undefined), the survivor count was 6 of 6 (dose: 120.0 mg/kg/injection, schedule: Q01DX005 (ip), vehicle: saline with Tween-80) and 1 of 6 (dose: 240.0 mg/kg/injection, schedule: Q01DX005 (ip), vehicle: saline with Tween-80).
Take `CCOC1OCN(C(C)(C)C)CC1(C)C` (centres undefined): the T/C is 135 % of control (dose: 100.0 mg/kg/injection, schedule: Q01DX009 (ip), vehicle: saline with Tween-80) and 125 % of control (dose: 200.0 mg/kg/injection, schedule: Q01DX009 (ip), vehicle: saline with Tween-80).
Consider `Nc1ccc(CCCCc2ccc(Cl)c(S(=O)(=O)F)c2)c(Cl)c1`, for which the survivor count (dose: 400.0 mg/kg/injection, schedule: Q01DX009 (ip), vehicle: saline with Tween-80) was 6 of 6.
Take `COc1cccnc1/C=N/NC(N)=S`: the T/C reads like this: (dose: 3.13 mg/kg/injection, schedule: Q01DX009 (ip), vehicle: saline with Tween-80) 130 % of control; (dose: 6.25 mg/kg/injection, schedule: Q01DX009 (ip), vehicle: saline with Tween-80) 136 and 142 % of control; under setting [7], 145 % of control. The survivor count is, setting by setting: under setting [7], 0 of 6; under setting [6], 0 of 6 and 2 of 6.
For the compound `N/C(=N/O)NO`, the T/C by setting is: under setting [4], 125 % of control; (dose: 200.0 mg/kg/injection, schedule: Q01DX005 (ip), vehicle: saline) 127 [5 of 6 alive] and 145 % of control.
Turning to `CCOC(=O)c1cnc2ccccn2c1=O`, the survivor count under setting [2] was 6 of 6 and the survivor count (dose: 400.0 mg/kg/injection, schedule: Q01DX009 (ip), vehicle: saline) was 5 of 6.
For `Cc1cccc(Nc2n[nH]c(N)n2)c1`, the survivor count (dose: 200.0 mg/kg/injection, schedule: Q01DX009 (ip), vehicle: Klucel (hydroxypropylcellulose) (HPC)) is reported as 1 of 6.
Consider `O=C(NC(C(=O)NC(C(=O)O)C1CC(Cl)=NO1)C1CC(Cl)=NO1)OCC1c2ccccc2-c2ccccc21` (centres undefined), for which the T/C is, setting by setting: (dose: 6.2 mg/kg/injection, schedule: Q04DX003 (ip), vehicle: other) 129 % of control; (dose: 10.0 mg/kg/injection, schedule: Q04DX003 (ip), vehicle: other) 129 % of control; (dose: 20.0 mg/kg/injection, schedule: Q04DX003 (ip), vehicle: other) 145 % of control. Further, the survivor count reads like this: (dose: 100.0 mg/kg/injection, schedule: Q04DX003 (ip), vehicle: other) 5 of 6; (dose: 200.0 mg/kg/injection, schedule: Q04DX003 (ip), vehicle: other) 4 of 6.
As to `Oc1ccc(N=Nc2ccc3ccc4cccc5ccc2c3c45)c2cccnc12`, the survivor count runs as follows: (dose: 200.0 mg/kg/injection, schedule: Q04DX003 (ip), vehicle: Klucel (hydroxypropylcellulose) (HPC)) 6 of 6; (dose: 400.0 mg/kg/injection, schedule: Q04DX003 (ip), vehicle: Klucel (hydroxypropylcellulose) (HPC)) 5 of 6.
Take `CCOC(=O)NNS(=O)(=O)CCC(N)C(=O)O` (centres undefined): the T/C (dose: 100.0 mg/kg/injection, schedule: Q01DX009 (ip), vehicle: water) was 130 % of control.

The values are drawn from PubChem BioAssay AID330 (DTP/NCI, 2004).
